Data: the supplement of paper PMC5836539
± gives the standard deviation of the averaged measurements. Most values lie within the scatter of the assay; repeated measurements hardly agree.

By UniProt entry, the sequences of proteins in these tests, tags left out. Where a name states a change or a piece, a line headed by the entry shows the natural chain unless it says otherwise.
UniProt P46821: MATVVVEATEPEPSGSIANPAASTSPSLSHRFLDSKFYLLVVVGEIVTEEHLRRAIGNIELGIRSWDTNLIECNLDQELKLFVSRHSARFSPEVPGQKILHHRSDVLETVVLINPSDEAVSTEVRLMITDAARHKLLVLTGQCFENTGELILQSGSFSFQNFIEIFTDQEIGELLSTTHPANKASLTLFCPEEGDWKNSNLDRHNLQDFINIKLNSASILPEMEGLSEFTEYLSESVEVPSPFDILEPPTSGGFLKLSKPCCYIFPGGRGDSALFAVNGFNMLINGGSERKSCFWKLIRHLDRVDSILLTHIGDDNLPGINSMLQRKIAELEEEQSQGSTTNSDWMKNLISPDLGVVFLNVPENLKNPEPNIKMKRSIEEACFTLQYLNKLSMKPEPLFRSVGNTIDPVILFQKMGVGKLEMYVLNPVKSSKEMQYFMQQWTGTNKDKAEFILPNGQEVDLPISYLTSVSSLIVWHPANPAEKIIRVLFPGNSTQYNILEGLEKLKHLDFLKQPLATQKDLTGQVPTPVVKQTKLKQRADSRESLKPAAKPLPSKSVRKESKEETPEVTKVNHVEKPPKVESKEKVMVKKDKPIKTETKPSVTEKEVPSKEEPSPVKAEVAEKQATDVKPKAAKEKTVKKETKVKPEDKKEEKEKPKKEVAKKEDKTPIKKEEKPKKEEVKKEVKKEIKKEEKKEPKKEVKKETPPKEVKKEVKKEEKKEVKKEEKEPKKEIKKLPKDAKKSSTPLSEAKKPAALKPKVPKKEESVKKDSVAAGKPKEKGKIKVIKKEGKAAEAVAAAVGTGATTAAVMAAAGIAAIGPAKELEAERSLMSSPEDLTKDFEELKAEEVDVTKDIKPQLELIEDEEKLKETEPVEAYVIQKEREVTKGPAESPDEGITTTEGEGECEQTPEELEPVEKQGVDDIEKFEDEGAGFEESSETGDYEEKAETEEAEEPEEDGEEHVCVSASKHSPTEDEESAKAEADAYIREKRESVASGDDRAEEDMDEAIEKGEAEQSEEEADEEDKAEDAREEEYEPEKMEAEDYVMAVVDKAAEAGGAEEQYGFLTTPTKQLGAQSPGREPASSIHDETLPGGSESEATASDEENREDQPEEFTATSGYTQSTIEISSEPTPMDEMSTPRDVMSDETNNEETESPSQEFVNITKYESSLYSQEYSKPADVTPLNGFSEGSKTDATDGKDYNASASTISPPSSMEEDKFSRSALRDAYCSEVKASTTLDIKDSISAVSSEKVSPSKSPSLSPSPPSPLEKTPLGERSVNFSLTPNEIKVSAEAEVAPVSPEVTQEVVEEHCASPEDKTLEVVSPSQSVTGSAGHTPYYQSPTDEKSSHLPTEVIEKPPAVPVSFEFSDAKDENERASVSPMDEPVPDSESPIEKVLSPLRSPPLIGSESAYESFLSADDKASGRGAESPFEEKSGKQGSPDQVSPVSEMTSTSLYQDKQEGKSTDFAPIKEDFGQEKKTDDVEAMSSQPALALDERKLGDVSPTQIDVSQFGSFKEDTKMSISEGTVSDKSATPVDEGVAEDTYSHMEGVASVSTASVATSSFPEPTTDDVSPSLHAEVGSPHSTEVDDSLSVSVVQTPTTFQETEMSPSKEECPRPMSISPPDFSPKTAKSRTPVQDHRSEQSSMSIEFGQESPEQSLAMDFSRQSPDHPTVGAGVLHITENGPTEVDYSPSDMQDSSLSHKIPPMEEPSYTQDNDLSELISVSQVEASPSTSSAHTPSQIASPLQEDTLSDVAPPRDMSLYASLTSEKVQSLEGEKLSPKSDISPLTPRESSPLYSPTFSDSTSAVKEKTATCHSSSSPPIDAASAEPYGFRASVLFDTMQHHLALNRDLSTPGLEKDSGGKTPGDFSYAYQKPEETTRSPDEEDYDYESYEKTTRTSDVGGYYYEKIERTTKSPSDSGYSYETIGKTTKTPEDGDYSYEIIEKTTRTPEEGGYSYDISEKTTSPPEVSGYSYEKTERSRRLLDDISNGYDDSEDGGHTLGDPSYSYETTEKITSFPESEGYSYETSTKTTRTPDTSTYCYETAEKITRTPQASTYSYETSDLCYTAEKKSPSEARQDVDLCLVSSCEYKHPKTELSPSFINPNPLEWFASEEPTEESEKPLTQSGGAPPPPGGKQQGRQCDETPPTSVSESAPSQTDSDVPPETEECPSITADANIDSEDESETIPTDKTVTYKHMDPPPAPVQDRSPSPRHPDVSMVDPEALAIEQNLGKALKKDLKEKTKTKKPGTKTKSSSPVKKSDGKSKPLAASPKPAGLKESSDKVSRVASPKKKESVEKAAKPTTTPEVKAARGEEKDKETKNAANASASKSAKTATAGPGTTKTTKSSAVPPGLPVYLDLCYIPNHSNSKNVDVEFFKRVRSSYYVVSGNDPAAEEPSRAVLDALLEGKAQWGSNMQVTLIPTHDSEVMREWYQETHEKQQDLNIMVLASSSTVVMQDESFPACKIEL
UniProt Q13427: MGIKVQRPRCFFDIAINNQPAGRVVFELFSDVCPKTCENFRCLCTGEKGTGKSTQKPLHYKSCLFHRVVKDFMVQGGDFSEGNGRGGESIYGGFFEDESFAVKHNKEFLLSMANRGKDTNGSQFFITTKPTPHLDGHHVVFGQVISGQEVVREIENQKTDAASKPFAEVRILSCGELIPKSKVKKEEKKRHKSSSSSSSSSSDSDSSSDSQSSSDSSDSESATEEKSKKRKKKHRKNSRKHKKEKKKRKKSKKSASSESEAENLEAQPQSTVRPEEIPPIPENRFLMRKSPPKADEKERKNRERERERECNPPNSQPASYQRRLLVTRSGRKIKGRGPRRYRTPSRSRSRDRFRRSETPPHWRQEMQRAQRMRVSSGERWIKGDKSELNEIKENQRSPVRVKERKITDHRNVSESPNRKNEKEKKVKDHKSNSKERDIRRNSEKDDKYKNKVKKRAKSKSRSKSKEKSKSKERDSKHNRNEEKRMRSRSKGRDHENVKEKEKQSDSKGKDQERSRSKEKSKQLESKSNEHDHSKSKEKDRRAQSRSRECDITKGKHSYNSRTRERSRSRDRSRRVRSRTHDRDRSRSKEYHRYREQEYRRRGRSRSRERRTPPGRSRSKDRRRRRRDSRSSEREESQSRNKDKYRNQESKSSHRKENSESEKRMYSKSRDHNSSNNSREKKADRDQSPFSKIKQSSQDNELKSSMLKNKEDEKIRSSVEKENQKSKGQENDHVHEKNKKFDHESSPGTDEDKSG
UniProt O94811, whole entry: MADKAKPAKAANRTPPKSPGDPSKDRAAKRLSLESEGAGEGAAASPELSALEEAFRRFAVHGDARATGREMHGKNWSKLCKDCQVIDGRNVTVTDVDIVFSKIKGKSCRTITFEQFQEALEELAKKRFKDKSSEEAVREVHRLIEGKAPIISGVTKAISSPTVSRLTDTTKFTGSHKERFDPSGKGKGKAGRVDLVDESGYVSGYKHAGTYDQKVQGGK
UniProt P42858, whole entry, looked up: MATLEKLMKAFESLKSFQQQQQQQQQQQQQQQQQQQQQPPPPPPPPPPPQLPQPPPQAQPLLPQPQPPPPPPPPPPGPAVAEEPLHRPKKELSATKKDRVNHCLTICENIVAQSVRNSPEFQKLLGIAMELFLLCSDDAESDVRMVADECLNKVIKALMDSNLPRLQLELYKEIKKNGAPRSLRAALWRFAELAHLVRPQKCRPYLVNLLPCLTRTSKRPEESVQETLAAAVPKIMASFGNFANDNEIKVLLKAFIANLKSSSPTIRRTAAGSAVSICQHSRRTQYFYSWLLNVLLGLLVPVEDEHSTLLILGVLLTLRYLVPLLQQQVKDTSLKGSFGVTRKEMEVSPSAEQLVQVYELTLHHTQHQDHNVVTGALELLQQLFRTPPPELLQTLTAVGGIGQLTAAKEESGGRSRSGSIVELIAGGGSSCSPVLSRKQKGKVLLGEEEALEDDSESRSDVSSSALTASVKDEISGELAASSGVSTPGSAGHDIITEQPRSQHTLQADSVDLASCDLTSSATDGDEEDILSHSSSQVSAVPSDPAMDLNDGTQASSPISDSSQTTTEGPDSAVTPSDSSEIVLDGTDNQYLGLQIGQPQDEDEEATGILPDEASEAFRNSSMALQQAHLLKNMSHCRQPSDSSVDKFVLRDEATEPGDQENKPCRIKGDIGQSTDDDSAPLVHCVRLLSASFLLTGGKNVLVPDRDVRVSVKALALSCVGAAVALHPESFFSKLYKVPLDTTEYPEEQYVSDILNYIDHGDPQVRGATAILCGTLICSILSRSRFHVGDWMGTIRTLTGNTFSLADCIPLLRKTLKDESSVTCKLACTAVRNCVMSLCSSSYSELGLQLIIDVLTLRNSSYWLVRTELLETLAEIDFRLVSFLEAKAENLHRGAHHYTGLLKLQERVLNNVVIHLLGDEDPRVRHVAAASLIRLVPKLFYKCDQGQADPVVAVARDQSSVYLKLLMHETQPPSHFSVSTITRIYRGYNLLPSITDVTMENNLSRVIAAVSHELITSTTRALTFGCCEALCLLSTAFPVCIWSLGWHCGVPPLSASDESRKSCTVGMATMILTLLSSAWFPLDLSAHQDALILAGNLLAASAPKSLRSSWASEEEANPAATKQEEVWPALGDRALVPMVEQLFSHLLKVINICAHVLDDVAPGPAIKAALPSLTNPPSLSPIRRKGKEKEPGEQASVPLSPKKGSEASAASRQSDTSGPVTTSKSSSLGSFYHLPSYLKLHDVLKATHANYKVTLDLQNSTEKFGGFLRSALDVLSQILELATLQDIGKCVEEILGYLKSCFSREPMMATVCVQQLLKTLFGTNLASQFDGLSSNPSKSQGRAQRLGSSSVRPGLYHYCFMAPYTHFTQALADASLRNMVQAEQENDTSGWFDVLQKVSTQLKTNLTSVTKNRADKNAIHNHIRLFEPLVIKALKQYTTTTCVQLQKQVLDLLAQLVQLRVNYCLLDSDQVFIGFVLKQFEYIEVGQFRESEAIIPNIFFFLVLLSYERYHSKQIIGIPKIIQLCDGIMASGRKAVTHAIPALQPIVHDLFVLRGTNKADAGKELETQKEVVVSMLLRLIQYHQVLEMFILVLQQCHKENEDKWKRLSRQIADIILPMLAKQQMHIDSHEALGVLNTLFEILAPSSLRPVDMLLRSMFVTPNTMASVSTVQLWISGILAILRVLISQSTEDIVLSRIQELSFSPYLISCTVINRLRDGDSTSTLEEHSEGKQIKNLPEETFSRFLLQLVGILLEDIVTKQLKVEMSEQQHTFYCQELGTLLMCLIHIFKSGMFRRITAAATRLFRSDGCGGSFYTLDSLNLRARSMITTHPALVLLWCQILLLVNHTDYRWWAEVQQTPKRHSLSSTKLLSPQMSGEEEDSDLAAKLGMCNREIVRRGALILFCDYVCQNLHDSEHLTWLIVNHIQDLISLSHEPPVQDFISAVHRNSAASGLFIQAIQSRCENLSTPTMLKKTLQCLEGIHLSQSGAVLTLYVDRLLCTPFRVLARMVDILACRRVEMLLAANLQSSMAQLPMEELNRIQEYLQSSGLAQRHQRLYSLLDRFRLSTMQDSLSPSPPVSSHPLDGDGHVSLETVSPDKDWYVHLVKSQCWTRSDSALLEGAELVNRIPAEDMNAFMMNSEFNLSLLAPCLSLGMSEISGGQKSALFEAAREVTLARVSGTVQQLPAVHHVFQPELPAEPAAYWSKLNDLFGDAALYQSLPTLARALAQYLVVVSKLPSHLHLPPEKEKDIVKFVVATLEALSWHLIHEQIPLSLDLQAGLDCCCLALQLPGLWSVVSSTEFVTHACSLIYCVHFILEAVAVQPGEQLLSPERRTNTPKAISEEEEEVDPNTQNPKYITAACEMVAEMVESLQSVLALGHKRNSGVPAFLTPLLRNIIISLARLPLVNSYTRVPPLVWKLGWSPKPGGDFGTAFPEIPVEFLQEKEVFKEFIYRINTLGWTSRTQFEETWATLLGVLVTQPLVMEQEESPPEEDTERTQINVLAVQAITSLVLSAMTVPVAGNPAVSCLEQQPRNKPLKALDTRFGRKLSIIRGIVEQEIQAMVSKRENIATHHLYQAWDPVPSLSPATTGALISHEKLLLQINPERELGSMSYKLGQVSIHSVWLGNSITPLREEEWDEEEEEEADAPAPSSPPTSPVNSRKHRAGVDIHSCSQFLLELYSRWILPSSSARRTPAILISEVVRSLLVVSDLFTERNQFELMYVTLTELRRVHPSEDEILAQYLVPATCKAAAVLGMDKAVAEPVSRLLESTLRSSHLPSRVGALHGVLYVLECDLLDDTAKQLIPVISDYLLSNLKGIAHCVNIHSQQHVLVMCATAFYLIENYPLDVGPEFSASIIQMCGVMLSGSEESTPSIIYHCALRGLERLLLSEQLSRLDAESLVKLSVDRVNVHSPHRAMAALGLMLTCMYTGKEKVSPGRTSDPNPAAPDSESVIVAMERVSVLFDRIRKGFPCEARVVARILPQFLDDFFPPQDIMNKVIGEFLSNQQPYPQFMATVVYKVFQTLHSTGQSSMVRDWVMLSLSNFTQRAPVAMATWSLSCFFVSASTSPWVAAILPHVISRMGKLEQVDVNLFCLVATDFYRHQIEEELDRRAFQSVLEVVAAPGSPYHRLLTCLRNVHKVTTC

Compound: CC[C@@H](C)Nc1cc(C(=O)N[C@H]2C[C@H]3CC[C@@H](C2)N3c2ccc(C(=O)C3CC3)cn2)c(C)cc1C(N)=O [XL888]
Assay: phosphopeptide melting temperature shift (XL888 minus DMSO); higher = stabilised by drug treatment
Conditions: 100 µM; treatment time 2 h; layout: intact cells; SK-Mel 28
Procedure: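 Phospho-TPP in intact SK-Mel 28 cells treated with 100 uM XL888 or DMSO for 2 h, heated at 10 temperatures (37-67 C) for 3 min, soluble fraction TMT10plex-labelled and TiO2 phospho-enriched. Melting curves were fitted per phosphopeptide; the value is the melting point difference (drug minus vehicle) in each of two biological replicates.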

Target	phosphopeptide melting temperature shift
MAP1B phosphosite_948 (phosphosite position: 948) (UniProt P46821)	1.89 ± 0.39 °C
SF3A1 phosphosite_359 (phosphosite position: 359) (UniProt Q15459)	1.08 ± 1.2 °C
UniProt Q15054-3_phosphosite_201 (phosphosite position: 201)	0.8 ± 0.77 °C
UniProt O95819-2_phosphosite_608 (phosphosite position: 608)	0.253 °C
UniProt Q14676-3_phosphosite_404 (phosphosite position: 404)	1.2 °C
TXNDC9 phosphosite_223 (phosphosite position: 223) (UniProt O14530)	0.668 °C
MAP1B phosphosite_1427 (phosphosite position: 1427) (UniProt P46821)	2.99 °C
ARFGAP2 phosphosite_146 (phosphosite position: 146) (UniProt Q8N6H7)	2.54 ± 0.61 °C
UniProt Q5VZK9-2_phosphosite_916 (phosphosite position: 916)	0.0893 ± 0.75 °C
UniProt Q6NZI2_phosphosite_202 (phosphosite position: 202)	1.71 ± 1.6 °C
UniProt Q8WYA6-3_phosphosite_293 (phosphosite position: 293)	-2.04 °C
UniProt Q5VSL9_phosphosite_335 (phosphosite position: 335)	0.412 ± 0.3 °C
UniProt Q99961-3_phosphosite_224 (phosphosite position: 224)	-0.195 °C
MAP1B phosphosite_1785 (phosphosite position: 1785) (UniProt P46821)	0.976 ± 0.37 °C
RAF1 phosphosite_295 (phosphosite position: 295) (UniProt P04049)	0.845 ± 0.56 °C
UniProt Q8TD55-2_phosphosite_314 (phosphosite position: 314)	0.412 °C
UniProt Q9Y4F5-3_phosphosite_527 (phosphosite position: 527)	-0.88 ± 1.4 °C
PPIG phosphosite_687 (phosphosite position: 687) (UniProt Q13427)	3.24 ± 0.36 °C
UniProt Q69YQ0-2_phosphosite_220 (phosphosite position: 220)	1.72 ± 0.47 °C
UniProt Q5T200-2_phosphosite_877 (phosphosite position: 877)	-0.0836 °C
UniProt Q66K74-2_phosphosite_612 (phosphosite position: 612)	1.62 ± 1.5 °C
UniProt P46108-2_phosphosite_41 (phosphosite position: 41)	0.744 ± 0.19 °C
UniProt Q9Y2D5-5_phosphosite_210 (phosphosite position: 210)	-0.535 °C
HNRNPUL2 phosphosite_185 (phosphosite position: 185) (UniProt Q1KMD3)	1.9 ± 0.86 °C
UniProt Q9H4L5-5_phosphosite_251 (phosphosite position: 251)	2.48 ± 1.4 °C

Target	phosphopeptide melting temperature shift
RAF1 phosphosite_301 (phosphosite position: 301) (UniProt P04049)	2.79 ± 0.99 °C
UniProt Q9P2K5-4_phosphosite_17 (phosphosite position: 17)	7.24 °C
UniProt Q9UER7-3_phosphosite_420 (phosphosite position: 420)	1.29 °C
HSP90AA1 phosphosite_252 (phosphosite position: 252) (UniProt P07900)	7.5 °C
SMARCC2 phosphosite_304 (phosphosite position: 304) (UniProt Q8TAQ2)	1.07 °C
UTP18 phosphosite_121 (phosphosite position: 121) (UniProt Q9Y5J1)	1.49 ± 1.1 °C
TPPP phosphosite_32 (phosphosite position: 32) (UniProt O94811)	1.41 ± 1.4 °C
DTX3L phosphosite_532 (phosphosite position: 532) (UniProt Q8TDB6)	2.59 ± 0.68 °C
UniProt Q08378-2_phosphosite_389 (phosphosite position: 389)	-0.379 °C
PSMF1 phosphosite_153 (phosphosite position: 153) (UniProt Q92530)	-1.08 ± 2.1 °C
SCAF1 phosphosite_498 (phosphosite position: 498) (UniProt Q9H7N4)	4.02 °C
ADNP phosphosite_955 (phosphosite position: 955) (UniProt Q9H2P0)	2.1 ± 1.2 °C
UniProt Q5T8I3-2_phosphosite_193 (phosphosite position: 193)	-1.39 ± 2 °C
UniProt Q27J81-2_phosphosite_1188 (phosphosite position: 1188)	1.62 °C
STRN4 phosphosite_276 (phosphosite position: 276) (UniProt Q9NRL3)	6.79 ± 2.1 °C
HTT phosphosite_432 (phosphosite position: 432) (UniProt P42858)	0.679 ± 0.14 °C
UniProt Q9H1H9-3_phosphosite_1481 (phosphosite position: 1481)	-0.449 °C
UniProt Q16666-3_phosphosite_106 (phosphosite position: 106)	-0.216 °C
UniProt P51812_phosphosite_375 (phosphosite position: 375)	-3.53 ± 1 °C
EIF3B phosphosite_164 (phosphosite position: 164) (UniProt P55884)	0.144 °C
UniProt Q8TDZ2-2_phosphosite_790 (phosphosite position: 790)	1.59 ± 0.27 °C
PFKP phosphosite_386 (phosphosite position: 386) (UniProt Q01813)	0.348 °C
UniProt Q8IWS0-2_phosphosite_156 (phosphosite position: 156)	2.7 ± 2.6 °C
UniProt Q9BUB5-3_phosphosite_185 (phosphosite position: 185)	0.294 ± 0.79 °C
SYNJ1 phosphosite_1220 (phosphosite position: 1220) (UniProt O43426)	2.05 °C

Looked up one by one from above (two):
Target	phosphopeptide melting temperature shift
DTX3L phosphosite_532 (phosphosite position: 532) (UniProt Q8TDB6)	2.59 ± 0.68 °C
HSP90AA1 phosphosite_252 (phosphosite position: 252) (UniProt P07900)	7.5 °C
